Read-outs that look alike come from different tables or passages of the source. Results are given in words; binding and its absence hold for the method and conditions named. Binding seen in cells or lysates may run through a third protein. A yes stands for co-enrichment or nearness to the bait. Other partners may have been found.

The chains behind the UniProt entries cited, without tags or fusion partners.
UniProt O77059: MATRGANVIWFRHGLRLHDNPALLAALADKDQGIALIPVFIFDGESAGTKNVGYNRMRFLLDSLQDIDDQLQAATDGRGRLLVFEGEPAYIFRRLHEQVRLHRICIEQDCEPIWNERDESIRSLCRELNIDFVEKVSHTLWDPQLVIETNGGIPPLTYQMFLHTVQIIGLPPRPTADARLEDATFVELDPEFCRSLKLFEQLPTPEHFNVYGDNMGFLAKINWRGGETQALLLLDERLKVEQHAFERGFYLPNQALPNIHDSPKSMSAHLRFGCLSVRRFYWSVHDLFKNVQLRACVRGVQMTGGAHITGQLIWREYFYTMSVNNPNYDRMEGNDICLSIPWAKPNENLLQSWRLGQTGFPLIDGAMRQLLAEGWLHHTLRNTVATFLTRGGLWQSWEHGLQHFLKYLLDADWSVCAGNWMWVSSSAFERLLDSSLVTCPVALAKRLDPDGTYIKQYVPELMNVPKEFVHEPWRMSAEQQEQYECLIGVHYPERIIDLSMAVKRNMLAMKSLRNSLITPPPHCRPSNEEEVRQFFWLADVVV
UniProt Q9VHP0: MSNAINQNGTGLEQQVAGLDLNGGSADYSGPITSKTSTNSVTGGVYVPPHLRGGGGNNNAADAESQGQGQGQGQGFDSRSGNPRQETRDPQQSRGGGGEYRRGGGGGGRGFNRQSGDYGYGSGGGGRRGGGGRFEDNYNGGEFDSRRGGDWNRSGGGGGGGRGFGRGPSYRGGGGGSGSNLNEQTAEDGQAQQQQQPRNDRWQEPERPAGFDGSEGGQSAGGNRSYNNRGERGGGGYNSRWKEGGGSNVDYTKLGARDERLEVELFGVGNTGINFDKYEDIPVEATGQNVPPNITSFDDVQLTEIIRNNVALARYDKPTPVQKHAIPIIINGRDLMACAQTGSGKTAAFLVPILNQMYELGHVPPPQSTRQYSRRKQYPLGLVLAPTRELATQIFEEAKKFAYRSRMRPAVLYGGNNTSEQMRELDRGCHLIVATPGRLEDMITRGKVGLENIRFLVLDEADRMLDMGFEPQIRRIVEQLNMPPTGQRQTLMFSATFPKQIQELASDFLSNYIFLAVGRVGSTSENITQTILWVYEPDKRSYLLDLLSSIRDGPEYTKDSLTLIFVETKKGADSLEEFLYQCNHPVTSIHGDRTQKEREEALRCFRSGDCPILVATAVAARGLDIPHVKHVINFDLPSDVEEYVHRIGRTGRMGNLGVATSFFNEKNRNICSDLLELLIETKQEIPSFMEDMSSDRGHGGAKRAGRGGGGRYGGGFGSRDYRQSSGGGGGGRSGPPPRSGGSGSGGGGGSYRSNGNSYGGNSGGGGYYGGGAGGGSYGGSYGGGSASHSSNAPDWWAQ

Assay [1] deals with hemagglutinin (HA)-tagged form of dCRY (Drosophila melanogaster) (UniProt O77059). In words: affinity purification with mass spectrometry; head extracts of HACRY-overexpressing flies, anti-HA co-immunoprecipitation, Coomassie-stained bands digested in-gel, LC-MS/MS (ESI-QTOF, MASCOT); flies in 12:12 LD collected at ZT24 in the dark and after a 15-min light pulse; control yw;tim-GAL4.

The target is the same in assay [2]. Described as above. The source holds these as a separate data set.

With “BELLE, DEAD box RNA helicase (from UniProt Q9VHP0 1-798)”, the binding result in assay [1] is reported as “binds”.

B1: ME31B (protein, UniProt P23128 1-459)
chain: MMTEKLNSGHTNLTSKGIINDLQIAGNTSDDMGWKSKLKLPPKDNRFKTTDVTDTRGNEFEEFCLKRELLMGIFEKGWERPSPIQEAAIPIALSGKDVLARAKNGTGKTGAYCIPVLEQIDPTKDYIQALVMVPTRELALQTSQICIELAKHLDIRVMVTTGGTILKDDILRIYQKVQLIIATPGRILDLMDKKVADMSHCRILVLDEADKLLSLDFQGMLDHVILKLPKDPQILLFSATFPLTVKNFMEKHLREPYEINLMEELTLKGVTQYYAFVQERQKVHCLNTLFSKLQINQSIIFCNSTQRVELLAKKITELGYCCYYIHAKMAQAHRNRVFHDFRQGLCRNLVCSDLFTRGIDVQAVNVVINFDFPRMAETYLHRIGRSGRFGHLGIAINLITYEDRFDLHRIEKELGTEIKPIPKVIDPALYVANVGASVGDTCNNSDLNNSANEEGNVSK
With B1, the binding entry in assay [2] is listed as “binds”.

Values taken from paper PMC6392097.
